Experimental findings from patent US20190062395A1 (MEDICENNA THERAPEUTICS, published 2019) are described below.

Where a chain is given by its changes, count along the chain named. No constants are given. Whether binding was seen depends on the method and setting. Some binding calls cover weakened binding; strength is not graded here.

For test [1], the target named is T1, IL-13Rα2.
T1 sequence: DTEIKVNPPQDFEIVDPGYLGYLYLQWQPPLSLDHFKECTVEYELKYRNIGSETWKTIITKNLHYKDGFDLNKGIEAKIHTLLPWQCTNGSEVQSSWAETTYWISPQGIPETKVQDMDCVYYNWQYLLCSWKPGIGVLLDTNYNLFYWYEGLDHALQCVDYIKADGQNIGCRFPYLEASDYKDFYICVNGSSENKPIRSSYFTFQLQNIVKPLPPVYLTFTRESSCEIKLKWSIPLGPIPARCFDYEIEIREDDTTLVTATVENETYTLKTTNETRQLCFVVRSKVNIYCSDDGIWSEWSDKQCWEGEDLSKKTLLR
Nature of the test: SPR, equilibrium; column KD (eq).

Test [2] addresses T2, IL-13Rα1.
T2 sequence: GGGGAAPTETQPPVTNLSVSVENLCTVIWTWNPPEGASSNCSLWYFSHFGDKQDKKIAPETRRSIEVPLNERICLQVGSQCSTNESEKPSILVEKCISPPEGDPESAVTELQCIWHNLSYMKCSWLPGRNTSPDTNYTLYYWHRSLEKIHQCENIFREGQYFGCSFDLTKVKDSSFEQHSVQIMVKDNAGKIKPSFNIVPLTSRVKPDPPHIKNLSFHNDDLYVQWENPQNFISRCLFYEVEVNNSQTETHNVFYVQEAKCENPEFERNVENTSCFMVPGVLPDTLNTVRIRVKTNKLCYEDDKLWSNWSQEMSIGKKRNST
Nature of the test: SPR, equilibrium; column KD (eq).

B1: B4 (ligand)
cytokine: PGPVPPSTALSELIEELINITQNQKAPLCNGSMVWSINLTAGMYCAALESLINVSGCSAIEKTQRMLSGFCPHKVSAGQFSSLHVKGSMIEVAQFVKDLLYHLRTLFREGQFN
B1: the binding result in test [1] is recorded as “binds”.

B2: C3 (ligand)
cytokine: B1 cytokine with L10A, S11R, I18V, K86T, S88K, M89R, Y101N, T105A, R108K
In the case of B2, the binding result in test [2] is “binds”.

B3: C4 (ligand)
cytokine: PGPVPPSTAVRELIEELVNITQNQKAPLCNGSMVWSINLTAGMYCAALESLINVSGCSAIEKTQRMLSGFCPHKVSAGQFSSLHVRDTRIEVAQFVKDLLNHLKELFTEGQFN
Turning to B3, in test [2], the binding result is listed as “binds”.
